No constants are given. Whether binding was seen depends on the method and setting. Binding seen in cells or lysates may run through a third protein. These calls come from enrichment with a bait or labelling near it, and not all partners need be listed. Tags and fused reporters may be left off the sequences shown.
T1: TNK1-BirA-HA (human) (UniProt Q13470)
T1 sequence: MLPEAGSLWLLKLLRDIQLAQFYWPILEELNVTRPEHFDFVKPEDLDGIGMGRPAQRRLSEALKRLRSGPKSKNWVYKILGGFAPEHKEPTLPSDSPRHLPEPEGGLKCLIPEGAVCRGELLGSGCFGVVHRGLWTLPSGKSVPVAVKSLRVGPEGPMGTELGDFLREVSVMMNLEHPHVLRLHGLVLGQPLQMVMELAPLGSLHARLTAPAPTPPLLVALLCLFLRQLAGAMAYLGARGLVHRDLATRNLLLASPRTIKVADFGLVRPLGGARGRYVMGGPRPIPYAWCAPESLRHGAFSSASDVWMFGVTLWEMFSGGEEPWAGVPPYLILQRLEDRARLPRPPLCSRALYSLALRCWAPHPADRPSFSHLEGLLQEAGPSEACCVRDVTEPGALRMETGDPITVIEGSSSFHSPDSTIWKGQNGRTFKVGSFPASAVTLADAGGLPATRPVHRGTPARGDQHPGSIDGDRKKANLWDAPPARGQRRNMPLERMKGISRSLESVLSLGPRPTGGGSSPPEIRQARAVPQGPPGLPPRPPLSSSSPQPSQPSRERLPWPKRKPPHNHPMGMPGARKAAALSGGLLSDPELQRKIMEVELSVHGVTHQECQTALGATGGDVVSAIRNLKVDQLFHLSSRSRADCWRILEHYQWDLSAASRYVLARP

T2: FLAG-TNK1 (wild type) (human) (UniProt Q13470)
T2 sequence: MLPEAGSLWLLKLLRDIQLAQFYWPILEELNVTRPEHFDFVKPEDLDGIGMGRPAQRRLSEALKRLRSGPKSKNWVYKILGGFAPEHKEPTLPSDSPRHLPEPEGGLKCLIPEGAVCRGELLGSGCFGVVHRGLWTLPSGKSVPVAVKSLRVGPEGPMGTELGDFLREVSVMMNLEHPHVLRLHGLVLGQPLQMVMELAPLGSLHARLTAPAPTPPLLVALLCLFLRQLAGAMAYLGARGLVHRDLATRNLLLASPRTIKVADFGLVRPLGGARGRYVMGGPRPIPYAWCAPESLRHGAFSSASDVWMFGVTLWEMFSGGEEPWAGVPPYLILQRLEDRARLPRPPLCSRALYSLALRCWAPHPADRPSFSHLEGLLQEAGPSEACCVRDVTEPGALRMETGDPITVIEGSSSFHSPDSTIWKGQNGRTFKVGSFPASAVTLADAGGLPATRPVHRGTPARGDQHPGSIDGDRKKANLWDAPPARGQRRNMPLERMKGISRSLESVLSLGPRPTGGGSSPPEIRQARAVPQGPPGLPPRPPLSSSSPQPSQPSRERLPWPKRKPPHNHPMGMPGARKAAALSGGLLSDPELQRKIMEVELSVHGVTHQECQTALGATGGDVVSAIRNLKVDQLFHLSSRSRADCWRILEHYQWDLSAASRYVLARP


Assays:
TNK1-BirA-HA (human) = target: T1, TNK1-BirA-HA (human); experiment: proximity labelling; BioID: TNK1-BirA-HA in HEK-293T, 50 nM biotin for 10 h, lysis in RIPA without SDS, streptavidin agarose, LC-MS/MS
[1] = target: T2, FLAG-TNK1 (wild type) (human); experiment: affinity purification with mass spectrometry; direct co-IP of FLAG-TNK1 followed by LC-MS/MS

binding (TNK1-BirA-HA (human)) | binding [1] | Binder
binds | binds | 14-3-3 γ (protein, UniProt P61981 1-247) MVDREQLVQKARLAEQAERYDDMAAAMKNVTELNEPLSNEERNLLSVAYKNVVGARRSSWRVISSIEQKTSADGNEKKIEMVRAYREKIEKELEAVCQDVLSLLDNYLIKNCSETQYESKVFYLKMKGDYYRYLAEVATGEKRATVVESSEKAYSEAHEISKEHMQPTHPIRLGLALNYSVFYYEIQNAPEQACHLAKTAFDDAIAELDTLNEDSYKDSTLIMQLLRDNLTLWTSDQQDDDGGEGNN
binds | binds | 14-3-3 θ (protein, UniProt P27348 1-245) MEKTELIQKAKLAEQAERYDDMATCMKAVTEQGAELSNEERNLLSVAYKNVVGGRRSAWRVISSIEQKTDTSDKKLQLIKDYREKVESELRSICTTVLELLDKYLIANATNPESKVFYLKMKGDYFRYLAEVACGDDRKQTIDNSQGAYQEAFDISKKEMQPTHPIRLGLALNFSVFYYEILNNPELACTLAKTAFDEAIAELDTLNEDSYKDSTLIMQLLRDNLTLWTSDSAGEECDAAEGAEN

Source: article PMC8429728, “TNK1 is a ubiquitin-binding and 14-3-3-regulated kinase that can be targeted to block tumor growth” (Nature Communications, 2021)
